Laboratory results taken from US9493501B2, “Methyltransferase inhibitors for treating cancer” (MEMORIAL SLOAN-KETTERING CANCER CENTER, priority 2011, dated 2016).
pIC50: −log10 of the molar value. At least one structure is not confirmed: it was looked up by name or label, or the drawing left a doubt.

Protein sequences, listed by entry. Tags and fused reporters are not part of them. Lines headed by an entry give the natural chain unless they say otherwise; changes in a name come on top.
UniProt Q9NRG4: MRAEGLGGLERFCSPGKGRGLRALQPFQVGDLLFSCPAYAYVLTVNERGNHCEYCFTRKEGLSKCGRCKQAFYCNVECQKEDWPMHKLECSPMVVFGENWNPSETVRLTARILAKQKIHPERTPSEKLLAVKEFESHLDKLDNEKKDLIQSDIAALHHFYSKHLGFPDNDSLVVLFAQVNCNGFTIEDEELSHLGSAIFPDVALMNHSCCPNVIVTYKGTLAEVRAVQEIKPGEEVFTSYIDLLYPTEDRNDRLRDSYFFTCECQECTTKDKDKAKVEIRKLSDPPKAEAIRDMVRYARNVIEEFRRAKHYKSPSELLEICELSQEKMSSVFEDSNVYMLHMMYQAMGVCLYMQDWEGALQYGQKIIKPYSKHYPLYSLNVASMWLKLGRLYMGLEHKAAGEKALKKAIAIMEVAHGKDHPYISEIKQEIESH

Target: T1, SMYD2 Full-length (Homo sapiens, UniProt Q9NRG4)
T1 construct: SMYD2 Full-length
Assay: Filter-paper methylation assay, SMYD2
Format: biochemical
Conditions: 50 nM enzyme, p53 (360-393 aa) peptide, 10 h; read-out: IC50 SMYD2-FL

## Nc1ncnc2c1ncn2[C@@H]1O[C@H](C[C@@H](N)CC[C@H](N)C(=O)O)[C@@H](O)[C@H]1O [SIN, sinefungin, reference compound]
  pIC50: 6.70
